Source: PubChem BioAssay AID1671190 (National Center for Advancing Translational Sciences (NCATS), 2021)
Out of some 580,000 compounds screened, about 6,100 (1.1%) were called active. The inconclusive results got no clear call from the source; some entries with a clear call stand among them for comparison. Calls come from the whole dose curve; as a rule, active = well fitted inhibition curve with a large enough effect; inconclusive = small, poorly fitted or top-dose-only effect, or another doubt; inactive = no such curve, though single readings can be large or run the other way. Where the call is inconclusive, the potency comes from a doubtful curve fit.

Chains of the proteins cited; added tags and fusions are not shown. Lines headed by an entry give the natural chain unless they say otherwise; changes in a name come on top.
UniProt P18054: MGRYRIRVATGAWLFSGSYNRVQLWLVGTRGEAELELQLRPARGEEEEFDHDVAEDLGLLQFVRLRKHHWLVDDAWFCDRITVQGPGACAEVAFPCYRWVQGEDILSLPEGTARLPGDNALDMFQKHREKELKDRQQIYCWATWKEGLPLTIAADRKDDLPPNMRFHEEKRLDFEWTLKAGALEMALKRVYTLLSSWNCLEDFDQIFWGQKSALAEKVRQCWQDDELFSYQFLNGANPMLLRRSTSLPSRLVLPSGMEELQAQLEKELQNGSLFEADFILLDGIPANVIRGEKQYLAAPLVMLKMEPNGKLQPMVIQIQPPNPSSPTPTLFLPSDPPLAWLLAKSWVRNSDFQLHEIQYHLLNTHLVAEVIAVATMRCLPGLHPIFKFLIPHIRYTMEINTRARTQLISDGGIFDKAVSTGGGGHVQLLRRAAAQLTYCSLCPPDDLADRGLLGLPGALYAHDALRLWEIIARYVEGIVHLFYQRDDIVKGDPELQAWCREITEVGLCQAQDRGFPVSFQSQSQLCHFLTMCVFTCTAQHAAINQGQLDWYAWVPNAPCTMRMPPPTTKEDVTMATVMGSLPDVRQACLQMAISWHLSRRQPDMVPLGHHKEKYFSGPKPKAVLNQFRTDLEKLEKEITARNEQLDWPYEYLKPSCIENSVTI

biological target: Polyunsaturated fatty acid lipoxygenase ALOX12 (Homo sapiens) (UniProt P18054); test: Primary qHTS assay for inhibitors of human arachidonate 12S-lipoxygenase (ALOX12): Round 2; details: purified 12hLO, xylenol orange hydroperoxide absorbance; series mostly up to 108 µM
Method in brief: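 Purified human 12hLO at 150 nM in 25 mM Hepes, 0.01% Triton X-100, pH 7.0, preincubated 15 min at room temperature with compound. Reaction started with 40 uM arachidonic acid, 30 min at room temperature. Hydroperoxide measured by Fe-xylenol orange, 573/405 nm absorbance ratio.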
Potency is the fitted concentration of half-maximal effect.

O=C(NCCC1=CCCCC1)c1cc(COc2ccc(F)cc2Cl)on1 was tested. Which Potency did it give?
Its Potency is “inactive”.

How did the Potency turn out when Cn1c(=O)c2c(nc(Cl)n2Cc2ccc(Cl)c(Cl)c2)n(C)c1=O was run?
The Potency was inconclusive: 126 µM [inhibitor, single point].

Which Potency does the source give for CC(=O)c1cccc(NC(=O)C2C(c3ccccc3)C2(Cl)Cl)c1 (stereo unspecified) here?
The Potency was inconclusive: 7.08 µM [inhibitor, partial curve, poor fit].

Cn1c(-c2ccc(C(C)(C)C)cc2)n[nH]c1=S was tested. Which Potency did it give?
Its Potency is inconclusive: 25.1 µM [inhibitor, partial curve, poor fit].

How did the Potency turn out when COc1ccc(-c2cnc3c(NC(C)=O)cc(-c4ccc(C(=O)N5CCOCC5)cc4)cn23)cc1OC was run?
Its Potency is inconclusive: 28.2 µM [inhibitor, partial curve].

With CCCC(c1nnnn1C1CCCC1)N1CCN(c2ccccc2F)CC1 (stereo unspecified) as the compound, how does the Potency read?
Its Potency is inconclusive: 35.5 µM [inhibitor, partial curve, poor fit].

For O=C(NC1CCCCC1)c1cc(-c2ccc(Br)cc2)nc2ccccc12, which Potency is on record?
Its Potency is “inactive”.

Nc1c(C(=O)NCC2CCCO2)sc2nc3c(c(-c4ccco4)c12)CC/C3=C\c1ccco1 (stereo unspecified) was tested. Which Potency did it give?
The Potency was inconclusive: 12.6 µM [inhibitor, full curve].

Which Potency does the source give for Cc1nc(SC2C=CS(=O)(=O)C2)n[nH]1 (stereo unspecified) here?
The Potency was inconclusive: 12.6 µM [inhibitor, partial curve, poor fit].

For CN(CC(=O)Nc1ccccc1Br)C(=O)CCc1ncc(-c2ccc(F)cc2F)o1, which Potency is on record?
The Potency was inconclusive: 0.199 µM [inhibitor, full curve, poor fit].

OCC1(Cc2ccccc2Cl)CCN(Cc2cc3ccccc3o2)CC1 was tested. Which Potency did it give?
The Potency was inconclusive: 44.7 µM [inhibitor, partial curve].

With Cc1cc(C)c(C)c(S(=O)(=O)Nc2ccc(C(N)=O)cc2)c1C as the compound, how does the Potency read?
Its Potency is inconclusive: 44.7 µM [inhibitor, partial curve, poor fit].

How did the Potency turn out when Cc1ccc(S(=O)(=O)N(CC(O)Cn2c3ccccc3c3ccccc32)c2cccc(C(=O)NCCO)c2)cc1 (stereo unspecified) was run?
Its Potency is inconclusive: 31.6 µM [inhibitor, partial curve, poor fit].

O=C(O)c1cnn(-c2nc(-c3cccc([N+](=O)[O-])c3)cs2)c1C(F)(F)F was tested. Which Potency did it give?
The Potency was inconclusive: 50.1 µM [inhibitor, partial curve, poor fit].

For CCOc1cccc(NC(=O)c2ccc(C)cc2)c1, which Potency is on record?
Its Potency is “inactive”.

O=C(OCc1nc2ccccc2o1)c1cccc(S(=O)(=O)N2CCCCCC2)c1 was tested. Which Potency did it give?
Its Potency is “inactive”.

With CC(C)(C)CN1CCOC[C@H]1c1ncc(-c2ccc(Cl)s2)[nH]1 as the compound, how does the Potency read?
Its Potency is inconclusive: 56.2 µM [inhibitor, partial curve, poor fit].

With CC(C)c1ccc(NC(=O)C2Cc3c(-c4ccc5c(c4)OCO5)ccnc3O2)cc1 (stereo unspecified) as the compound, how does the Potency read?
Its Potency is inconclusive: 50.1 µM [inhibitor, partial curve, poor fit].

Which Potency does the source give for COc1cc(OC)c(N(C)C(=O)c2cc3c(s2)-c2ccccc2OC3)cc1Cl here?
Its Potency is “inactive”.

Which Potency does the source give for COc1cc([N+](=O)[O-])ccc1NC(=O)COC(=O)C1=NN(c2ccccc2)C(=O)CC1 here?
Its Potency is inconclusive: 112 µM [inhibitor, partial curve, poor fit].

Which Potency does the source give for Cc1ccc(S(=O)(=O)N/N=C/c2c[nH]c3ccccc23)cc1 here?
The Potency was inconclusive: 44.7 µM [inhibitor, partial curve].

For Cc1ccc2c(c1)cc(CN(Cc1cccnc1)C(=O)NCc1ccccc1)c1nnnn12, which Potency is on record?
The Potency was “inactive”.

Which Potency does the source give for O=C(CSc1ccc2c(c1)OCCO2)Nc1ccc(Br)cn1 here?
The Potency was inconclusive: 50.1 µM [inhibitor, partial curve, poor fit].

COc1ccc(CCNc2nc(-c3ccc(NC(C)=O)cc3)cs2)cc1OC was tested. Which Potency did it give?
Its Potency is “inactive”.

CCNC(=S)N/N=C/c1ccc(OCc2ccc(C(=O)OC)cc2)cc1 was tested. Which Potency did it give?
Its Potency is “inactive”.

How did the Potency turn out when C#CCOc1nc2c(c(=O)n(C)c(=O)n2C)n1Cc1ccccc1Cl was run?
Its Potency is inconclusive: 50.1 µM [inhibitor, partial curve, poor fit].

For CCC(=O)Nc1nc(C)c(Oc2ccccc2)c(=O)[nH]1, which Potency is on record?
Its Potency is inconclusive: 1 µM [inhibitor, partial curve, poor fit].

How did the Potency turn out when Cn1c(=O)c2c(-c3ccccc3Cl)[nH]cc2n(C)c1=O was run?
Its Potency is inconclusive: 44.7 µM [inhibitor, partial curve, poor fit].

For Cc1ccc(Cl)cc1NC(=O)N1CCC(CN2CCc3ccccc3C2)CC1, which Potency is on record?
The Potency was inconclusive: 1.78 µM [inhibitor, full curve, poor fit].

With CC(=O)C1=C(C)NC(SCC(=O)c2ccc(F)cc2)=C(C#N)C1c1ccco1 (stereo unspecified) as the compound, how does the Potency read?
The Potency was “inactive”.

CC1CN(C(=O)COC(=O)c2ccccc2O)CC(C)O1 (stereo unspecified) was tested. Which Potency did it give?
The Potency was inconclusive: 2.51 µM [inhibitor, full curve, poor fit].

For Cn1c(=O)n(C)c2cc(NC(=O)CN3C(=O)COc4ccccc43)ccc21, which Potency is on record?
Its Potency is inconclusive: 56.2 µM [inhibitor, single point].

With CCCC(c1nnnn1CS(=O)(=O)c1ccc(C)cc1)N1CCN(c2ccccc2)CC1 (stereo unspecified) as the compound, how does the Potency read?
Its Potency is inconclusive: 39.8 µM [inhibitor, partial curve, poor fit].

For CCN1CCN(c2ccc(NC(=O)c3ccccc3F)cc2Cl)CC1, which Potency is on record?
The Potency was inconclusive: 112 µM [inhibitor, single point].

With O=C(c1cccc([N+](=O)[O-])c1)c1ccc2c(c1)OCCOCCOCCO2 as the compound, how does the Potency read?
The Potency was inconclusive: 112 µM [inhibitor, single point].

With CCCNC(=O)NC(=O)COC(=O)c1ccc2ccccc2n1 as the compound, how does the Potency read?
Its Potency is inconclusive: 100 µM [inhibitor, single point].

With CCN1CCN(c2nc(-c3cccnc3)nc3ccccc23)CC1 as the compound, how does the Potency read?
Its Potency is “inactive”.

For O=C(CN1CCN(c2ncccc2C(F)(F)F)CC1)NC1CC1, which Potency is on record?
Its Potency is “inactive”.

Which Potency does the source give for Cc1ccc2c(c1)cc(S(=O)(=O)c1ccccc1)c(=O)n2CC(=O)N1CCCC1 here?
The Potency was inconclusive: 79.4 µM [inhibitor, partial curve, poor fit].

For Cc1ccc(NC(=O)Cn2nc3n(c2=O)CCCCC3)cc1, which Potency is on record?
The Potency was “inactive”.

CS(=O)(=O)N1Cc2ccccc2CC2(CCN(Cc3ccncc3)C2)C1 (stereo unspecified) was tested. Which Potency did it give?
The Potency was inconclusive: 35.5 µM [inhibitor, full curve, poor fit].
